Measurements as given in article PMC6536580.
No constants are given. Whether binding was seen depends on the method and setting. In cells and extracts the contact can be indirect.

Chains of the proteins cited; added tags and fusions are not shown. Lines headed by an entry give the natural chain unless they say otherwise; changes in a name come on top.
UniProt Q9HC16: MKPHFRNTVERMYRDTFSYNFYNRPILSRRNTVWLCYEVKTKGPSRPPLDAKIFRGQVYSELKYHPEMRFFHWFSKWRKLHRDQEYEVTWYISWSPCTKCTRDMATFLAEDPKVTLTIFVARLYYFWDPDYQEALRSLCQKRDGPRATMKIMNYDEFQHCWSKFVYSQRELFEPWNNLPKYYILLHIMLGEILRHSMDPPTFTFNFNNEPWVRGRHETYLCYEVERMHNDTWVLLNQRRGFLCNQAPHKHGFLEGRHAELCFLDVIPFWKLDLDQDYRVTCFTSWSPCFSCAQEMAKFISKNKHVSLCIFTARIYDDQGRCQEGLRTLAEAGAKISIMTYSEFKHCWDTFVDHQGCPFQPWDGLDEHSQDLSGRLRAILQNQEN

Biological target: HA-tagged human APOBEC3G R122A mutant (human) (UniProt Q9HC16)
Assay: co-IP; HA-tagged A3G (WT or R122A) and GFP-tagged A3G WT transiently co-expressed in HEK293T; lysate precipitated with anti-HA beads; immunoblot with HA- and GFP-specific antibodies

GFP-tagged APOBEC3G wild type (from UniProt Q9HC16 1-384)
binding: no binding
